According to US20160031958A1, “METHODS AND COMPOSITIONS USEFUL IN MANIPULATING THE STABILITY OF RE1 SILENCING TRANSCRIPTION FACTOR” (OREGON HEALTH & SCIENCE UNIVERSITY, priority 2014, published 2016):
Positions count from the first letter of the chain named. No constants are given. Whether binding was seen depends on the method and setting. Binding seen in cells or lysates may run through a third protein. Some binding calls cover weakened binding; strength is not graded here. Sequences can lack the tags named with a protein.

The chains behind the UniProt entries cited, without tags or fusion partners.
UniProt Q9UKL0: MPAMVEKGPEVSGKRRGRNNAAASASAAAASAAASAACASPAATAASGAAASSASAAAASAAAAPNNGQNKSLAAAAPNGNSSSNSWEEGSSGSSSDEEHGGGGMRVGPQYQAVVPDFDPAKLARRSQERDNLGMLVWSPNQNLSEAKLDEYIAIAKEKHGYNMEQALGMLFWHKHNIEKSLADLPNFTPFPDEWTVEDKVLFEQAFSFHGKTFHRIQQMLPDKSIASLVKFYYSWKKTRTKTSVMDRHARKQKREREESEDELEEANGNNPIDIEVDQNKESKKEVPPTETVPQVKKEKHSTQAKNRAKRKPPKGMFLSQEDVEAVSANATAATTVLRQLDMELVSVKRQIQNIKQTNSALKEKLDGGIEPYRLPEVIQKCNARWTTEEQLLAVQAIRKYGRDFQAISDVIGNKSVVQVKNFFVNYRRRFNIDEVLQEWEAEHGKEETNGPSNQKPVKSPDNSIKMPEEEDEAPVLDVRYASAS
UniProt Q9Y297: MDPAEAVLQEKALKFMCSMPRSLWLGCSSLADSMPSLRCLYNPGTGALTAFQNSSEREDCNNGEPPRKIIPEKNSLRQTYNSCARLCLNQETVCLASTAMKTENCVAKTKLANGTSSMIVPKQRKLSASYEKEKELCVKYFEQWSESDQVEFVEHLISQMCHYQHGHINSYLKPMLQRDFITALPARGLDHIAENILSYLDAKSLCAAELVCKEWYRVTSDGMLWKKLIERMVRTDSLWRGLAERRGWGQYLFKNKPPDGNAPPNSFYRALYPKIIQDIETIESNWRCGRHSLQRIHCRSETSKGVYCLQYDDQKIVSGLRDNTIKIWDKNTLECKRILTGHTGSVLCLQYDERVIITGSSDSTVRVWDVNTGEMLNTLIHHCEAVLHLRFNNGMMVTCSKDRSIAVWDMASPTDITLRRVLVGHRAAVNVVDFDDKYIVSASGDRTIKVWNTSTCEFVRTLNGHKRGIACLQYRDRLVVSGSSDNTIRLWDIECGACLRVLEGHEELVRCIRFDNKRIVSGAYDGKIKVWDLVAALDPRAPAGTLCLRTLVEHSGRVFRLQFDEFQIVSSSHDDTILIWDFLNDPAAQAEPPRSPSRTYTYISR

Assays:
[1] = biological target: T1, S861A/S864A REST (full-length; tag not stated for this experiment) (human) (UniProt Q13127); assay: co-immunoprecipitation, Western blot
T1 sequence (looked up): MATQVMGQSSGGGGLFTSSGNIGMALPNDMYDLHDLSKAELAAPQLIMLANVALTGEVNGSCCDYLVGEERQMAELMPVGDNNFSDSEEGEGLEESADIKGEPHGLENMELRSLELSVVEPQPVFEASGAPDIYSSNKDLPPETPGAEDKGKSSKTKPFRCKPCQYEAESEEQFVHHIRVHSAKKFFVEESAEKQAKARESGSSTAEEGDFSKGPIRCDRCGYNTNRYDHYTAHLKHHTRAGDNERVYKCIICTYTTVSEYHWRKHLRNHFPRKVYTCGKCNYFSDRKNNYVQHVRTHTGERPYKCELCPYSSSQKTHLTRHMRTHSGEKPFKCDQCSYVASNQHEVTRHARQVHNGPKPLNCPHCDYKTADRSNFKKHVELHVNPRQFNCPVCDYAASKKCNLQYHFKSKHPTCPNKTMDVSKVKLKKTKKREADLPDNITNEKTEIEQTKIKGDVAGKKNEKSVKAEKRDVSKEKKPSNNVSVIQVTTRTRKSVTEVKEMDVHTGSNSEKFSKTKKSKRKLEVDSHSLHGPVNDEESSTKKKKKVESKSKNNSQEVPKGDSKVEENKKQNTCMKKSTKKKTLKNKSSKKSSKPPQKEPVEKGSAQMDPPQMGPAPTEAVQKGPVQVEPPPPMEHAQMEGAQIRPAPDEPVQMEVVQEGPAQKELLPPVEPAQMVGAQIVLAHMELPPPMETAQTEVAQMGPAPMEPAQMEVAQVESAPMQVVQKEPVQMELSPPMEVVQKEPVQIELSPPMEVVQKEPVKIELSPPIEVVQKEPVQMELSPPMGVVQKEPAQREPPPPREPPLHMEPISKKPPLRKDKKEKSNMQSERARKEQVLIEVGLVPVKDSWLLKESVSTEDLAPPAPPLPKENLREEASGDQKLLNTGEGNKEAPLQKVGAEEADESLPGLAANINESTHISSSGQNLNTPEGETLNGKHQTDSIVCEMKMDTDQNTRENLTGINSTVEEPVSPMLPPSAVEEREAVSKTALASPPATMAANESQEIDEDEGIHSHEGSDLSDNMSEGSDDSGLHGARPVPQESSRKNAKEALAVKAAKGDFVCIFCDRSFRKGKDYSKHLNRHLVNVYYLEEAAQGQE

[2] = biological target: T2, REST (unmutated, full-length; tag not stated for this experiment) (human) (UniProt Q13127); assay: co-immunoprecipitation from transfected HEK cells, Western blot
T2 sequence (serines 861 and 864 phosphorylated in cells, extent not stated, looked up): T1 sequence (looked up) with A861S, A864S

[3] = biological target: T1, S861A/S864A REST (full-length; tag not stated for this experiment) (human); assay: as above
[4] = biological target: T3, HA-REST (unmutated wild type, full-length RE1 Silencing Transcription factor) (human) (UniProt Q13127); assay: GST pull-down from co-transfected HEK cells, Western blot
T3 sequence (serines 861 and 864 phosphorylated in cells, extent not stated, looked up): T1 sequence (looked up) with A861S, A864S

[5] = biological target: T3, HA-REST (unmutated wild type, full-length RE1 Silencing Transcription factor) (human); assay: GST pull-down from co-transfected HEK293T cells, Western blot
[6] = biological target: T4, FLAG-REST (unmutated, full-length) (human) (UniProt Q13127); assay: co-immunoprecipitation from transfected HEK293T cells with or without the Pin1 inhibitor PiB, Western blot
T4 sequence (serines 861 and 864 phosphorylated in cells, extent not stated, looked up): T1 sequence (looked up) with A861S, A864S

binding [1]	binding [2]	binding [3]	binding [4]	binding [5]	binding [6]	Substance
binds	binds	binds	–	–	–	CoREST (from UniProt Q9UKL0 1-485)
–	–	–	binds	binds	binds	GST-βTrCP (from UniProt Q9Y297 1-605)
